# From the supplement of paper PMC8728848
# The list shows a part of the results.
# Tests used:
# Test in all cases: glycan array binding signal (z-score within array); higher = stronger binding
# Details in all cases: glycan notation: IUPAC condensed, linker removed
# [1] = system: Gal(b1-3)GlcNAc(b1-3)Gal(b1-4)[Fuc(a1-3)]GlcNAc(b1-6)[Gal(b1-3)GlcNAc(b1-3)]Gal(b1-4)Glc
# Method in brief: (§1)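 The binding signal is a Z-score computed within each array and averaged over linkers. Arrays of the same protein sequence at different concentrations or buffers were also averaged together. Data originate from 3228 arrays in the Consortium for Functional Glycomics database, kept only where the protein sequence was available.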
# [2] = system: Gal(b1-3)GlcNAc(b1-3)Gal(b1-4)[Fuc(a1-3)]GlcNAc
# Method in brief: as §1
# [3] = system: Gal(b1-3)GlcNAc(b1-3)GalNAc
# Method in brief: as §1
# [4] = system: Gal(b1-3)GlcNAc(b1-6)Gal(b1-4)GlcNAc
# Method in brief: as §1
# [5] = system: Gal(b1-3)GlcNAc(b1-6)GalNAc
# Method in brief: as §1
# [6] = system: Gal(b1-3)GlcNAc(b1-6)[Gal(b1-3)]GalNAc
# Method in brief: as §1
# Gal(b1-3)GlcNAc6S = system: Gal(b1-3)GlcNAc6S
# Method in brief: as §1
# Gal(b1-3)GlcNAc = system: Gal(b1-3)GlcNAc
# Method in brief: as §1
# [7] = system: Gal(b1-3)[Fuc(a1-4)]GlcNAc(b1-2)Man(a1-3)[Gal(b1-3)[Fuc(a1-4)]GlcNAc(b1-2)Man(a1-6)]Man(b1-4)GlcNAc(b1-4)[Fuc(a1-6)]GlcNAc
# Method in brief: as §1
# [8] = system: Gal(b1-3)[Fuc(a1-4)]GlcNAc(b1-2)Man
# Method in brief: as §1
# [9] = system: Gal(b1-3)[Fuc(a1-4)]GlcNAc(b1-3)Gal(b1-3)[Fuc(a1-4)]GlcNAc
# Method in brief: as §1
# [10] = system: Gal(b1-3)[Fuc(a1-4)]GlcNAc(b1-3)Gal(b1-4)[Fuc(a1-3)]GlcNAc
# Method in brief: as §1
# [11] = system: Gal(b1-3)[Fuc(a1-4)]GlcNAc(b1-6)GalNAc
# Method in brief: as §1
# [12] = system: Gal(b1-3)[Fuc(a1-4)]GlcNAc
# Method in brief: as §1
# [13] = system: Gal(b1-3)[GlcNAc(b1-6)]GalNAc
# Method in brief: as §1
# [14] = system: Gal(b1-3)[Neu5Ac(a2-6)]GalNAc
# Method in brief: as §1
# [15] = system: Gal(b1-3)[Neu5Ac(a2-6)]GlcNAc(b1-4)Gal(b1-4)Glc
# Method in brief: as §1
# [16] = system: Gal(b1-3)[Neu5Ac(b2-6)]GalNAc
# Method in brief: as §1
# [17] = system: Gal(b1-4)GalNAc(a1-3)[Fuc(a1-2)]Gal(b1-4)GlcNAc
# Method in brief: as §1
# [18] = system: Gal(b1-4)GalNAc(b1-3)[Fuc(a1-2)]Gal(b1-4)GlcNAc
# Method in brief: as §1
# Gal(b1-4)Gal = system: Gal(b1-4)Gal
# Method in brief: as §1
# Gal(b1-4)Glc6S = system: Gal(b1-4)Glc6S
# Method in brief: as §1
# [19] = system: Gal(b1-4)GlcNAc(a1-6)Gal(b1-4)GlcNAc
# Method in brief: as §1
# [20] = system: Gal(b1-4)GlcNAc(b1-2)Man(a1-3)Man(b1-4)GlcNAc(b1-4)GlcNAc
# Method in brief: as §1
# [21] = system: Gal(b1-4)GlcNAc(b1-2)Man(a1-3)[Gal(b1-4)GlcNAc(b1-2)Man(a1-6)]Man(b1-4)GlcNAc(b1-4)GlcNAc
# Method in brief: as §1
# [22] = system: Gal(b1-4)GlcNAc(b1-2)Man(a1-3)[Gal(b1-4)GlcNAc(b1-2)Man(a1-6)]Man(b1-4)GlcNAc(b1-4)[Fuc(a1-6)]GlcNAc
# Method in brief: as §1
# [23] = system: Gal(b1-4)GlcNAc(b1-2)Man(a1-3)[Gal(b1-4)GlcNAc(b1-2)Man(a1-6)][Gal(b1-4)GlcNAc(b1-4)]Man(b1-4)GlcNAc(b1-4)[Fuc(a1-6)]GlcNAc
# Method in brief: as §1
# [24] = system: Gal(b1-4)GlcNAc(b1-2)Man(a1-3)[Gal(b1-4)GlcNAc(b1-2)Man(a1-6)][GlcNAc(b1-4)]Man(b1-4)GlcNAc(b1-4)[Fuc(a1-6)]GlcNAc
# Method in brief: as §1
# [25] = system: Gal(b1-4)GlcNAc(b1-2)Man(a1-3)[GlcNAc(b1-2)Man(a1-6)]Man(b1-4)GlcNAc(b1-4)GlcNAc
# Method in brief: as §1
# [26] = system: Gal(b1-4)GlcNAc(b1-2)Man(a1-3)[GlcNAc(b1-4)][Gal(b1-4)GlcNAc(b1-2)Man(a1-6)]Man(b1-4)GlcNAc(b1-4)GlcNAc
# Method in brief: as §1
# [27] = system: Gal(b1-4)GlcNAc(b1-2)Man(a1-3)[Man(a1-6)]Man(b1-4)GlcNAc(b1-4)GlcNAc
# Method in brief: as §1
# [28] = system: Gal(b1-4)GlcNAc(b1-2)Man(a1-6)Man(b1-4)GlcNAc(b1-4)GlcNAc
# Method in brief: as §1
substance,measurement,setting,value
MpAFP RI GFP (Marinomonas primoryensis),glycan array binding signal (z-score),[1],-0.216
same,glycan array binding signal (z-score),[2],-0.347
same,glycan array binding signal (z-score),[3],-0.671
same,glycan array binding signal (z-score),[4],-0.657
same,glycan array binding signal (z-score),[5],-0.483
same,glycan array binding signal (z-score),[6],-0.446
same,glycan array binding signal (z-score),Gal(b1-3)GlcNAc6S,-0.587
same,glycan array binding signal (z-score),Gal(b1-3)GlcNAc,-0.331
same,glycan array binding signal (z-score),[7],2.74
same,glycan array binding signal (z-score),[8],0.529
same,glycan array binding signal (z-score),[9],-0.366
same,glycan array binding signal (z-score),[10],-0.369
same,glycan array binding signal (z-score),[11],0.225
same,glycan array binding signal (z-score),[12],-0.41
same,glycan array binding signal (z-score),[13],-0.258
same,glycan array binding signal (z-score),[14],-0.061
same,glycan array binding signal (z-score),[15],-0.689
same,glycan array binding signal (z-score),[16],-1.1
same,glycan array binding signal (z-score),[17],-0.623
same,glycan array binding signal (z-score),[18],-0.643
same,glycan array binding signal (z-score),Gal(b1-4)Gal,-0.4
same,glycan array binding signal (z-score),Gal(b1-4)Glc6S,-0.553
same,glycan array binding signal (z-score),[19],-0.753
same,glycan array binding signal (z-score),[20],-0.163
same,glycan array binding signal (z-score),[21],-0.144
same,glycan array binding signal (z-score),[22],0.285
same,glycan array binding signal (z-score),[23],-0.395
same,glycan array binding signal (z-score),[24],-0.525
same,glycan array binding signal (z-score),[25],-0.494
same,glycan array binding signal (z-score),[26],-0.519
same,glycan array binding signal (z-score),[27],0.914
same,glycan array binding signal (z-score),[28],-0.51

# Reformatted: results already given.
substance	measurement	setting	value
MpAFP RI GFP (Marinomonas primoryensis)	glycan array binding signal (z-score)	[14]	-0.061
same	glycan array binding signal (z-score)	[16]	-1.1
same	glycan array binding signal (z-score)	Gal(b1-4)Glc6S	-0.553
